At least one compound was matched to its structure with a doubt left.
Tests used:
hERG = hERG (Homo sapiens, UniProt Q12809); assay: human ether-a-go-go related gene (hERG) assay; type: cell-based; settings: highest tested concentration (30 times higher than levels effective for visualization)
[1] = tested on: prostate and prostate tumor tissue (PSMA); assay: visualization of prostatic tissue under illumination in patients (Example 2); type: in vivo; settings: 20 mg in 10 ml of sterile water intravenously; laser excitation at approximately 800 nm

The chains behind the UniProt entries cited, without tags or fusion partners. Where a name states a change or a piece, a line headed by the entry shows the natural chain unless it says otherwise.
UniProt Q12809: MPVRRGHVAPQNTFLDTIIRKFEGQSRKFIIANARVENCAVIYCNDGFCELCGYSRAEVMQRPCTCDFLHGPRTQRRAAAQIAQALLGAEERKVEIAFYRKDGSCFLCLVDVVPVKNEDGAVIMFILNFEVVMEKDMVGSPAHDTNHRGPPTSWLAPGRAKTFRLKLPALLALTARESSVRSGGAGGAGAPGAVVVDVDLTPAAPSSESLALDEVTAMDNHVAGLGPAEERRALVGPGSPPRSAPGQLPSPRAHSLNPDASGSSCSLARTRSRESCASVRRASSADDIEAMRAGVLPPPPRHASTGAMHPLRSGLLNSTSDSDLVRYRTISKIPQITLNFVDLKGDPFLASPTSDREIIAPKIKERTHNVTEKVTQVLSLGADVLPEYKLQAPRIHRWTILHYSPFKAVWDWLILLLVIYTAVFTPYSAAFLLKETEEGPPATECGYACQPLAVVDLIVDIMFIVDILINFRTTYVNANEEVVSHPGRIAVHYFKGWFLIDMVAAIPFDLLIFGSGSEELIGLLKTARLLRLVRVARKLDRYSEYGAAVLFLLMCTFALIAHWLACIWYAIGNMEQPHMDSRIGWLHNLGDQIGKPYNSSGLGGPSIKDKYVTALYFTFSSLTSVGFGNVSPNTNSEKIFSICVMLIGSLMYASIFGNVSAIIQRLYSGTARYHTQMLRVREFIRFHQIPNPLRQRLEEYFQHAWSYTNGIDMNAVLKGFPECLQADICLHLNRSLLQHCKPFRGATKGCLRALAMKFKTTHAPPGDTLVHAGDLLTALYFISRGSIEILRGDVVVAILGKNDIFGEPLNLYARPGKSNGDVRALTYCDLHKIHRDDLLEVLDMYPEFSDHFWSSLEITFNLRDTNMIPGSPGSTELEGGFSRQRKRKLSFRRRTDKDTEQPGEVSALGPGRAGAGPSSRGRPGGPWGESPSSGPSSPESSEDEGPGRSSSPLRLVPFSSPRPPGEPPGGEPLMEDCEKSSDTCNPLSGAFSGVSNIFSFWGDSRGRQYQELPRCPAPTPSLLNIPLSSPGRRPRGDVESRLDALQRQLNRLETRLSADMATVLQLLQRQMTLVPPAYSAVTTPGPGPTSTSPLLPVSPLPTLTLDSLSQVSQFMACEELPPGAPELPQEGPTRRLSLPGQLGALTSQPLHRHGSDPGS

## CC1(C)C(/C=C/C2=C(Oc3ccc(S(=O)(=O)O)cc3)C(=C/C=C3/N(CCCS(=O)(=O)O)c4ccccc4C3(C)CCCC(=O)NCCCCC(NC(=O)CCCCCCC(=O)NCCCC[C@H](NC(=O)N[C@@H](CCC(=O)O)C(=O)O)C(=O)O)C(=O)O)/CCC2)=[N+](CCCS(=O)(=O)[O-])c2ccccc21 (some centres unmarked) [formula III]
hERG
  inhibition of hERG function: 11%
[1]
  time after administration at which visualization of the prostate and prostate tumor tissue can be achieved: 2 to 24 h

From US11857645B2, “Compositions of near IR closed chain, sulfo-cyanine dyes and prostate specific membrane antigen ligands” (priority 2016, dated 2024)
